From patent EP0135429B1 (THE UNIVERSITY OF GEORGIA RESEARCH FOUNDATION, INC., priority 1983, dated 1992)
Some peptides are written in HELM: one residue between dots, names in brackets for other building blocks, links after the first $.

Assay: general procedure: solution-phase peptide synthesis; EDC/HOBt/N-methylmorpholine
Conditions: late stage modification step, acetate

## PEPTIDE1{Y.[dA].G.[VEPhe(1R)].L}$$$$V2.0
  step yield: 70.4%
